Assay: Metabolite quantitation in mouse plasma (QQQ-LC/MS)
Assay type: in vivo
Details: MRM
Experimental: Preparation of plasma samples for LC-MS analysis. Plasma was collected from mice via a submandibular bleed into lithium heparin tubes (BD, 365985) and immediately transferred onto ice. The blood was centrifuged at 4° C. at 5000 rpm for 5 min and the top layer of plasma was aliquoted and frozen at −80 °C. To extract polar metabolites from plasma for LC-MS analysis, 150 μl of a 2:1 mixture of acetonitrile/methanol was added to 50 μl of plasma. The mixture was centrifuged at 4° C. for 10 min at 15,000 rpm and the supernatant was transferred to a LC-MS vial.
Targeted metabolomics. Targeted measurements were performed using an Agilent 6470 triple quadrupole LC-MS instrument. MS analysis was performed using AJS in negative mode. […] Quantification of the endogenous metabolite concentrations were performed by generating a standard curve with known concentrations of each metabolite. Metabolite standards were analyzed alongside the plasma samples using the same targeted triple quadrupole LC/MS method. […] The dilution of the plasma during the sample preparation was also taken into account for the quantification.

Compound | endogenous presence in mouse plasma
CCC(O)C(=O)N[C@@H](Cc1ccccc1)C(=O)O (some centres unmarked) [2-HB-Phe] | not endogenous metabolites
CC(CO)C(=O)N[C@@H](Cc1ccccc1)C(=O)O (some centres unmarked) [3-HIB-Phe] | not endogenous metabolites
